# Laboratory results published in paper PMC7699745, “The Search for New Anticonvulsants in a Group of (2,5-Dioxopyrrolidin-1-yl)(phenyl)Acetamides with Hybrid Structure—Synthesis and In Vivo/In Vitro Studies” (International Journal of Molecular Sciences, 2020).
# Tests used:
# [1] = system: 6 Hz (32 mA) seizures, mice; assay: Psychomotor 6 Hz (32 mA) seizure model; assay type: in vivo; conditions: i.p., TD50 rotarod / ED50 6 Hz (32 mA)
# MES seizures, mice = assay: Maximal electroshock (MES) seizure test; assay type: in vivo; conditions: i.p., TD50 rotarod / ED50 MES
Structure (SMILES),PI (TD50/ED50) (6 Hz) [1],"PI (TD50/ED50) (MES) (MES seizures, mice)"
"O=C(Nc1ccccc1)C(c1ccccc1)N1C(=O)CCC1=O (stereo not shown) [Compound 3, 2-(2,5-Dioxopyrrolidin-1-yl)-N,2-diphenylacetamide]",>3.2 (6 Hz),–
"O=C(Nc1ccccc1F)C(c1ccccc1)N1C(=O)CCC1=O (stereo not shown) [Compound 4, 2-(2,5-Dioxopyrrolidin-1-yl)-N-(2-fluorophenyl)-2-phenylacetamide]",–,>4.1 (MES)
"O=C(Nc1ccc(F)cc1)C(c1ccccc1)N1C(=O)CCC1=O (stereo not shown) [Compound 6, 2-(2,5-Dioxopyrrolidin-1-yl)-N-(4-fluorophenyl)-2-phenylacetamide]",> 5.2,> 2.5
"O=C(Nc1cccc(Cl)c1)C(c1ccccc1)N1C(=O)CCC1=O (stereo not shown) [Compound 8, N-(3-Chlorophenyl)-2-(2,5-dioxopyrrolidin-1-yl)-2-phenylacetamide]",–,>4.1 (MES)
"O=C(Nc1ccc(Cl)cc1)C(c1ccccc1)N1C(=O)CCC1=O (stereo not shown) [Compound 9, N-(4-Chlorophenyl)-2-(2,5-dioxopyrrolidin-1-yl)-2-phenylacetamide]",–,>2.8 (MES)
"O=C(NCc1ccccc1)C(c1ccccc1)N1C(=O)CCC1=O (stereo not shown) [Compound 14, N-Benzyl-2-(2,5-dioxopyrrolidin-1-yl)-2-phenylacetamide]",>4.7 (6 Hz),–
"O=C(NCc1cccc(Cl)c1)C(c1ccccc1)N1C(=O)CCC1=O (stereo not shown) [Compound 19, N-(3-Chlorobenzyl)-2-(2,5-dioxopyrrolidin-1-yl)-2-phenylacetamide]",>3.3 (MES) >3.3 (6 Hz),>3.3 (MES) >3.3 (6 Hz)
"O=C(NCc1ccccc1C(F)(F)F)C(c1ccccc1)N1C(=O)CCC1=O (stereo not shown) [Compound 21, 2-(2,5-Dioxopyrrolidin-1-yl)-2-phenyl-N-(2-(trifluoromethyl)benzyl)acetamide]",>6.0 (6 Hz),–
"O=C(NCc1cccc(C(F)(F)F)c1)C(c1ccccc1)N1C(=O)CCC1=O (stereo not shown) [Compound 22, 2-(2,5-Dioxopyrrolidin-1-yl)-2-phenyl-N-(3-(trifluoromethyl)benzyl)acetamide]",>5.2 (6 Hz),–
"O=C(NCc1cccc(OC(F)(F)F)c1)C(c1ccccc1)N1C(=O)CCC1=O (stereo not shown) [Compound 24, 2-(2,5-Dioxopyrrolidin-1-yl)-2-phenyl-N-(3-(trifluoromethoxy)benzyl)acetamide]",>6.8 (6 Hz),–
"O=C(NCCc1ccccc1)C(c1ccccc1)N1C(=O)CCC1=O (stereo not shown) [Compound 25, 2-(2,5-Dioxopyrrolidin-1-yl)-N-phenethyl-2-phenylacetamide]",2.4 (MES) 2.4 (6 Hz),2.4 (MES) 2.4 (6 Hz)
"O=C(NCCc1ccc(Cl)cc1)C(c1ccccc1)N1C(=O)CCC1=O (stereo not shown) [Compound 28, N-(4-Chlorophenethyl)-2-(2,5-dioxopyrrolidin-1-yl)-2-phenylacetamide]",–,2.3
"O=C(NCCc1cccc(C(F)(F)F)c1)C(c1ccccc1)N1C(=O)CCC1=O (stereo not shown) [Compound 29, 2-(2,5-Dioxopyrrolidin-1-yl)-2-phenyl-N-(3-(trifluoromethyl)phenethyl)acetamide]",3.6,3.2
"O=C(NCCc1cccc(OC(F)(F)F)c1)C(c1ccccc1)N1C(=O)CCC1=O (stereo not shown) [Compound 30, 2-(2,5-Dioxopyrrolidin-1-yl)-2-phenyl-N-(3-(trifluoromethoxy)phenethyl)acetamide]",4.1,3.5
"COC[C@@H](NC(C)=O)C(=O)NCc1ccccc1 [LCS, lacosamide, reference compound]",8.8,5.0
"Nc1nnc(-c2cccc(Cl)c2Cl)c(N)n1 [LTG, lamotrigine, reference compound]",7.5,15.6
"CCCC(CCC)C(=O)O [VPA, valproic acid, reference compound]",3.3,1.7
